Laboratory results reported in the supplement of paper PMC10849652.
The list shows a part of the results.

Sequences of proteins named here, by UniProt entry; tags and fusion partners are left off. A change or cut given only in a name is not applied to a line headed by its entry.
UniProt Q9H9Z2: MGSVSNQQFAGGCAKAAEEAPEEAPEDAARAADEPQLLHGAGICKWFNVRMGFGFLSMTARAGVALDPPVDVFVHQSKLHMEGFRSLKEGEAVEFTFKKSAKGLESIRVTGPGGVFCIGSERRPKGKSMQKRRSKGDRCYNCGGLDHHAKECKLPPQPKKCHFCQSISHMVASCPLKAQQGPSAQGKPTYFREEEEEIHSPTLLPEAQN
UniProt Q86WU2: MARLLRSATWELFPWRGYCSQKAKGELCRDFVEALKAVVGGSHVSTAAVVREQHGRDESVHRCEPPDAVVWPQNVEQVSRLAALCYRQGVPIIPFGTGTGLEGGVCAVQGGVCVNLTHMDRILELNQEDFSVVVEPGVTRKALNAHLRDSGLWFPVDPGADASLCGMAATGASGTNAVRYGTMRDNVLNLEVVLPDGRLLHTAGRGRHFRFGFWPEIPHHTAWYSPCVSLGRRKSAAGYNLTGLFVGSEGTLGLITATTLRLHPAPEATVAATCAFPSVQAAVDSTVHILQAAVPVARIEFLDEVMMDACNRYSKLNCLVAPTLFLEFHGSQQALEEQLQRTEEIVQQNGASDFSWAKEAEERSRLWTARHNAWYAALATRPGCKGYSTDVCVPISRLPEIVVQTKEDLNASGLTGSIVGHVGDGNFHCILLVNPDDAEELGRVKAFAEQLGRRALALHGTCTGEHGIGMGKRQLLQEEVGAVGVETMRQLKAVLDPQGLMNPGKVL
UniProt Q96CN5: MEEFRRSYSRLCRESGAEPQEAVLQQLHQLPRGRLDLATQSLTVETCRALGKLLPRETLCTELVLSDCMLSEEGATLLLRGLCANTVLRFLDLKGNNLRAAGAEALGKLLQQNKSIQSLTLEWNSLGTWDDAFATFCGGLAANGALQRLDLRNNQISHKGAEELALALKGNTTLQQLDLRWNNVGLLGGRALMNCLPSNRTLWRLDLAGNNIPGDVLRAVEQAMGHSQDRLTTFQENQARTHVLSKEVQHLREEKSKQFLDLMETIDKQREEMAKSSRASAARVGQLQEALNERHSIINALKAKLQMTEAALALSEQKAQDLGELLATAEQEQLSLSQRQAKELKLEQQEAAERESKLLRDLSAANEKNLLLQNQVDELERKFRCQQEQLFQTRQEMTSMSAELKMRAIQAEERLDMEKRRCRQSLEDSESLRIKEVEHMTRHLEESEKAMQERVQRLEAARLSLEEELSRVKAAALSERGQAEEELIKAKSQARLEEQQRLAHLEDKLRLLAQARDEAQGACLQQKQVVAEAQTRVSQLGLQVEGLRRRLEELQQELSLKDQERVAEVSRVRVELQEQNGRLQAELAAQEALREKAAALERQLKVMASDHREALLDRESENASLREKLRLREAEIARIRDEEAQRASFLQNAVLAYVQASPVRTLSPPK
UniProt Q8WVP7: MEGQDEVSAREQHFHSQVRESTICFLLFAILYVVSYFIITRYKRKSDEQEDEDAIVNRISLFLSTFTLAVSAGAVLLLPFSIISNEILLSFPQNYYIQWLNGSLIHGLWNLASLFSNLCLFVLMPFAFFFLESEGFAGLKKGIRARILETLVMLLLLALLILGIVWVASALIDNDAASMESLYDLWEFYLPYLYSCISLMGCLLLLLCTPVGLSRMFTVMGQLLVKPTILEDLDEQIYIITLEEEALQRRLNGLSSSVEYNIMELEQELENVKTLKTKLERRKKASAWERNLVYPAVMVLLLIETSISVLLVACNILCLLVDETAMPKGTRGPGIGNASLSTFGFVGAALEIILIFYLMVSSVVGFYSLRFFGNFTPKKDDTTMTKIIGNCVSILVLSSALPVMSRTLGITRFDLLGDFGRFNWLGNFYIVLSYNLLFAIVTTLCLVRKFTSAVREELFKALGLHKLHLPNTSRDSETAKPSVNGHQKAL
UniProt Q86X29: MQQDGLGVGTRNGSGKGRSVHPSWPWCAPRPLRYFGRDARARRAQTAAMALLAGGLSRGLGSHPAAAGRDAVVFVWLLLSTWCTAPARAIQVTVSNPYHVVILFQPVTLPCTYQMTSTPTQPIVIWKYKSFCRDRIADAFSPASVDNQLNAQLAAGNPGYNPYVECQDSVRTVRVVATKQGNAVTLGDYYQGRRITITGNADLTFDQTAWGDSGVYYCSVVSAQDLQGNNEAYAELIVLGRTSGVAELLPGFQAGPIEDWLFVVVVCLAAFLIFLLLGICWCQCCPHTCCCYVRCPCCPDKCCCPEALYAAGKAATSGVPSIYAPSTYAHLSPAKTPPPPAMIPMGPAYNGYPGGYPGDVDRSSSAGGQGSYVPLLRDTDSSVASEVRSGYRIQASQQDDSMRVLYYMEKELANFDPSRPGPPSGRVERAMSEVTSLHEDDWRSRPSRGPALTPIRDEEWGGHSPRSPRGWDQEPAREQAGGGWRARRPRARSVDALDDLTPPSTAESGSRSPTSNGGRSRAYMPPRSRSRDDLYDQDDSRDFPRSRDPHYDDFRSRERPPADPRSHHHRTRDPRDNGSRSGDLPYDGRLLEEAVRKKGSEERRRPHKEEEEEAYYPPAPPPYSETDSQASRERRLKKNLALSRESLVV
UniProt Q9Y2L9: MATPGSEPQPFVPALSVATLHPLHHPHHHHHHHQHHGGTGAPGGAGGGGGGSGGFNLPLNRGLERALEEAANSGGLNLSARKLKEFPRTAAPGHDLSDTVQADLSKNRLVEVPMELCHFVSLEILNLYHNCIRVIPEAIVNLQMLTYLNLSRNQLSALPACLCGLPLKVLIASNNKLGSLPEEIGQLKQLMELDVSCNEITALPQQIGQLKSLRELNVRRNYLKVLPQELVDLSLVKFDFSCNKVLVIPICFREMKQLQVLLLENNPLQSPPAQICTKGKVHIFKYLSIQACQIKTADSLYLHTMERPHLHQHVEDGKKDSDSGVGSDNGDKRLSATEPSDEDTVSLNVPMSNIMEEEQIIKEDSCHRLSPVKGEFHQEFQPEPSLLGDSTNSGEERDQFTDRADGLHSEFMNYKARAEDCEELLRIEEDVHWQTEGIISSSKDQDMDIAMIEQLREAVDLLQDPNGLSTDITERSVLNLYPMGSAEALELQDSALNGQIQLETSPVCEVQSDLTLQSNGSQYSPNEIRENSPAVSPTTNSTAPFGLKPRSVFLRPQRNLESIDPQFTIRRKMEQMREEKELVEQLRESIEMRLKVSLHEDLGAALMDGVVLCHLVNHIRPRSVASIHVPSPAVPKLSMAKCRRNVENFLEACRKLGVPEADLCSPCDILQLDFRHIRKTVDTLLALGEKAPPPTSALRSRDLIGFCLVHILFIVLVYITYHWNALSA
UniProt Q9BT23: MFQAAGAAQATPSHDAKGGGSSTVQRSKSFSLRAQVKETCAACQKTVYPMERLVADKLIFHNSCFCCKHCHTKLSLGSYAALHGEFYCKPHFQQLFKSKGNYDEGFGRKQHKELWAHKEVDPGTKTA
UniProt Q6ZRR7: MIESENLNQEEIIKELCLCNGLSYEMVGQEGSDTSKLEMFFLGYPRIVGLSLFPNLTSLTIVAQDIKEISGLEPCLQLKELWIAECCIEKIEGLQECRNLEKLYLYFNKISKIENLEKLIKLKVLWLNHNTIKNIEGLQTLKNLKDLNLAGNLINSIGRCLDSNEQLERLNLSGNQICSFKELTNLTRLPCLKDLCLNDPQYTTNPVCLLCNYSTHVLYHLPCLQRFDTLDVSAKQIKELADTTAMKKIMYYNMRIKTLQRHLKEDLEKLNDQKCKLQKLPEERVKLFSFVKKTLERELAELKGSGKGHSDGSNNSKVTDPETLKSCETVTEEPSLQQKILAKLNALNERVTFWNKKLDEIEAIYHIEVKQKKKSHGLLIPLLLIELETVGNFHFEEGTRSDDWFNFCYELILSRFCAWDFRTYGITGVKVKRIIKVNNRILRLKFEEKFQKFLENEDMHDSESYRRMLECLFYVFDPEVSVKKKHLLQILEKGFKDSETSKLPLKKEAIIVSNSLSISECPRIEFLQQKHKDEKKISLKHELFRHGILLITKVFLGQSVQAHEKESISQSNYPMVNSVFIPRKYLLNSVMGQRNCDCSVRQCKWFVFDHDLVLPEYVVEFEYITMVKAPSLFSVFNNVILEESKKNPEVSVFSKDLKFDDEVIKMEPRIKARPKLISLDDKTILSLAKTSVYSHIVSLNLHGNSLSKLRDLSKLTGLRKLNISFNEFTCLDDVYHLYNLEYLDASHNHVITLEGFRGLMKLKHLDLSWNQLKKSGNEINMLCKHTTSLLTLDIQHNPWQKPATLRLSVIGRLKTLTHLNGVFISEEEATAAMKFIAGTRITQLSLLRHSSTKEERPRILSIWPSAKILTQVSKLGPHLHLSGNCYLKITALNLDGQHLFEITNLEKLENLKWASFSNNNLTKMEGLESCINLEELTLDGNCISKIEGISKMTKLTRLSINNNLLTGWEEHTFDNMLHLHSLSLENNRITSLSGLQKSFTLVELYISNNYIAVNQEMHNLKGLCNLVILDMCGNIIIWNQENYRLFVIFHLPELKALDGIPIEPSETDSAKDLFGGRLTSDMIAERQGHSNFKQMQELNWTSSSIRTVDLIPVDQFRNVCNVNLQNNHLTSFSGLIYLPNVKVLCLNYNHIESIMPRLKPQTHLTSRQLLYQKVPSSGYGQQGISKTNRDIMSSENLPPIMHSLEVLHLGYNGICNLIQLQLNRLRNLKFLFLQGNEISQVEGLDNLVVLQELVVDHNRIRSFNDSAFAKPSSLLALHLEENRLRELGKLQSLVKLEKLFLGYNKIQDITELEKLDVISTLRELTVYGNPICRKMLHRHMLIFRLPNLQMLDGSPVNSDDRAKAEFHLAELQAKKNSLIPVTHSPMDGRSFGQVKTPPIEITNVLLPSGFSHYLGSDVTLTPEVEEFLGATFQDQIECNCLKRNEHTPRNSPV
UniProt Q6P5S2: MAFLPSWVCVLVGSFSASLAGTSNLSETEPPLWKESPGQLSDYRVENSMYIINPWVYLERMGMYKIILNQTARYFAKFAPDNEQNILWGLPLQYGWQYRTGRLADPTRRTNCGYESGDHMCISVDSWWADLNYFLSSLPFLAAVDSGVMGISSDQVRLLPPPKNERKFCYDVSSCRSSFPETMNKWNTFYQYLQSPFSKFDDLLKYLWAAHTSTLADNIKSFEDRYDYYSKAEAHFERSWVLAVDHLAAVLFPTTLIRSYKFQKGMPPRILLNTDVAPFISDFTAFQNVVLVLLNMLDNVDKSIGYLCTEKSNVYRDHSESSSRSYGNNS
UniProt Q96JN0: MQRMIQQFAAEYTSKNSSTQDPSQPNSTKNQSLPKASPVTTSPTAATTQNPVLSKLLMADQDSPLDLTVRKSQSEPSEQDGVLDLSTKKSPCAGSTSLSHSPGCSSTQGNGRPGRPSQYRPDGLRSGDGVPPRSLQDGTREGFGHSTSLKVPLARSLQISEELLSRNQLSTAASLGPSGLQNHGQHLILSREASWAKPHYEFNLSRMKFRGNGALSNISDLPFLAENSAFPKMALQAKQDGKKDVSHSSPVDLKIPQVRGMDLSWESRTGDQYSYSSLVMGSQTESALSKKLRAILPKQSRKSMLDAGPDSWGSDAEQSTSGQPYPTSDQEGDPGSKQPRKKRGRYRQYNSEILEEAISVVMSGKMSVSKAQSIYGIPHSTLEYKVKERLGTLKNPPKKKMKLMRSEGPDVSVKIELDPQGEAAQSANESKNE
UniProt Q86VQ0: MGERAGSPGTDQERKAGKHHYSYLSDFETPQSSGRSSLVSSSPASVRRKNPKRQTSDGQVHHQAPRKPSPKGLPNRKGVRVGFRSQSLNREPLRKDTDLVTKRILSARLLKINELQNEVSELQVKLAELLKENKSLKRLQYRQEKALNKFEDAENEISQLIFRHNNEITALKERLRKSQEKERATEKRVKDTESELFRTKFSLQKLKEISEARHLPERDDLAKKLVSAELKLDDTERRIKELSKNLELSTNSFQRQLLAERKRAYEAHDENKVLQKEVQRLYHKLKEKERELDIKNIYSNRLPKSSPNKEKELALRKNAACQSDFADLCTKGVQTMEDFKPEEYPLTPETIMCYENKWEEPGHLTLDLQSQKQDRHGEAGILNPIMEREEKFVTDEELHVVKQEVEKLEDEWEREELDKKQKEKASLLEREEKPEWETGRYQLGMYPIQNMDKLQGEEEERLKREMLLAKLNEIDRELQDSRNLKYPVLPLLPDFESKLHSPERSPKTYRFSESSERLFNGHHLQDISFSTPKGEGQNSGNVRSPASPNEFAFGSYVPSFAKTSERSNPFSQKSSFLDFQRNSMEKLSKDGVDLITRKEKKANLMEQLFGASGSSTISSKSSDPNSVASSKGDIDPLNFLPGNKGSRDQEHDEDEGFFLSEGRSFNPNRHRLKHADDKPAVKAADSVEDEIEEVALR
UniProt P61968: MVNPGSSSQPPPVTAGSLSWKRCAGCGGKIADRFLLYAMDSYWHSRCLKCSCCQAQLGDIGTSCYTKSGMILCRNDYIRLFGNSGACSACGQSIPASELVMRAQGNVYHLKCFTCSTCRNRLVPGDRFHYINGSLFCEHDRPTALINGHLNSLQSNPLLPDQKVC

Assays:
Experiment in all cases: log2 fold change, soluble protein after heating vs DMSO (PISA); higher = thermal stabilisation; K562 lysate, 10 uM; active = over 0.2 and 3.5 SD of the protein, either way, in both replicates (recomputed)
Tubastatin A = compound: CN1CCc2c(c3ccccc3n2Cc2ccc(C(=O)NO)cc2)C1 [Tubastatin A]
In short: (§1)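 Dounce homogenisation of K562 pellets in PBS pH 7.4 with 1 mM MgCl2 produced a crude extract, used at 1 mg/mL protein. Exposure to 10 μM compound lasted 30 min, and aliquots were then heated for 3 min across 48°C-58°C, pooled and brought to 0.5% NP-40 at 4°C. The supernatant after 21,000xg for 90 min was quantified by TMTpro 16plex LC-MS/MS with channel sums equalised. Duplicate values are given as log-two fold change in thermal stability relative to solvent controls.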

defactinib = compound: CNC(=O)c1ccc(Nc2ncc(C(F)(F)F)c(NCc3nccnc3N(C)S(C)(=O)=O)n2)cc1 [defactinib]
In short: as §1

[1] = compound: COc1cc2nc(-c3cc(F)ccc3O)nc(N[C@@H]3CNC[C@H]3C(C)(C)O)c2cc1OC
In short: as §1

lapatinib = compound: CS(=O)(=O)CCNCc1ccc(-c2ccc3ncnc(Nc4ccc(OCc5cccc(F)c5)c(Cl)c4)c3c2)o1 [lapatinib]
In short: as §1

crizotinib = compound: C[C@@H](Oc1cc(-c2cnn(C3CCNCC3)c2)cnc1N)c1c(Cl)ccc(F)c1Cl [crizotinib]
In short: as §1

doramapimod = compound: Cc1ccc(-n2nc(C(C)(C)C)cc2NC(=O)Nc2ccc(OCCN3CCOCC3)c3ccccc23)cc1 [doramapimod]
In short: as §1

alvocidib = compound: CN1CC[C@H](c2c(O)cc(O)c3c(=O)cc(-c4ccccc4Cl)oc23)[C@H](O)C1 [alvocidib]
In short: as §1

[2] = compound: CNC(=O)C1=CC=CC=C1NC2=NC(=NC=C2Cl)NC3=C(C=C(C=C3)N4CCOCC4)OC
In short: as §1

alisertib = compound: COc1cc(Nc2ncc3c(n2)-c2ccc(Cl)cc2C(c2c(F)cccc2OC)=NC3)ccc1C(=O)O [alisertib]
In short: as §1

gefitinib = compound: COc1cc2ncnc(Nc3ccc(F)c(Cl)c3)c2cc1OCCCN1CCOCC1 [gefitinib]
In short: as §1

pictilisib = compound: CS(=O)(=O)N1CCN(Cc2cc3nc(-c4cccc5[nH]ncc45)nc(N4CCOCC4)c3s2)CC1 [pictilisib]
In short: as §1

[3] = compound: C[C@H](C1=CC=C(C=C1)C(=O)NC2=C3C=CNC3=NC=C2)N
In short: as §1

gandotinib = compound: Cc1cc(Nc2cc(CN3CCOCC3)c3nc(C)c(Cc4ccc(Cl)cc4F)n3n2)n[nH]1 [gandotinib]
In short: as §1

bafetinib = compound: Cc1ccc(NC(=O)c2ccc(CN3CC[C@H](N(C)C)C3)c(C(F)(F)F)c2)cc1Nc1nccc(-c2cncnc2)n1 [bafetinib]
In short: as §1

[4] = compound: Cc1cccc(CC(=O)N2CCc3c2ccc(-c2cn(C)c4ncnc(N)c24)c3F)n1
In short: as §1

encorafenib = compound: COC(=O)N[C@@H](C)CNc1nccc(-c2cn(C(C)C)nc2-c2cc(Cl)cc(NS(C)(=O)=O)c2F)n1 [encorafenib]
In short: as §1

[5] = compound: COC(=O)[C@H](CCSC)NC(=O)C1=C(C=C(C=C1)NC[C@H](CS)N)C2=CC=CC=C2
In short: as §1

tozasertib = compound: Cc1cc(Nc2cc(N3CCN(C)CC3)nc(Sc3ccc(NC(=O)C4CC4)cc3)n2)n[nH]1 [tozasertib]
In short: as §1

[6] = compound: CNc1nc(-c2ccc3c(N)n[nH]c3c2)cc(N2C[C@@H](C(=O)NC3CCCCC3)CC[C@H]2C)n1
In short: as §1

duvelisib = compound: C[C@H](Nc1ncnc2nc[nH]c12)c1cc2cccc(Cl)c2c(=O)n1-c1ccccc1 [duvelisib]
In short: as §1

Measured: log2 fold change

LRRIQ1 (UniProt Q96JM4)
inactive: Tubastatin A -0.096 | defactinib -0.031 | [1] -0.037 | lapatinib 0.04 | crizotinib -0.278 | doramapimod -0.073

LIN28A (UniProt Q9H9Z2)
inactive: alvocidib -0.036 | [2] -0.025 | alisertib -0.01 | gefitinib 0.076 | pictilisib -0.037 | [3] 0.022 | gandotinib -0.175 | bafetinib -0.061 | [4] -0.118

LIG1 isoform 3 (UniProt P18858)
inactive: Tubastatin A -0.005 | encorafenib -0.053 | [5] 0.211 | tozasertib -0.031

LNX1 (UniProt Q8TBB1)
inactive: [6] 0.195 | crizotinib 0.026 | duvelisib -0.139 | doramapimod 0.193

LDHD (UniProt Q86WU2)
inactive: alvocidib -0.029 | encorafenib 0.066 | [5] -0.139 | pictilisib -0.171 | [3] 0.015 | gandotinib 0.208 | tozasertib -0.374 | bafetinib 0.018 | [4] 0.01

LRRC45 (UniProt Q96CN5)
inactive: [6] -0.089 | duvelisib 0.112

LMBR1 isoform 3 (UniProt Q8WVP7)
inactive: alvocidib -0.059 | pictilisib -0.001 | crizotinib 0.006 | [3] -0.039 | gandotinib -0.059 | doramapimod -0.174 | bafetinib -0.214 | [4] 0.143

LSR isoform 3 (UniProt Q86X29)
inactive: alvocidib -0.133 | crizotinib -0.056 | [3] -0.011 | gandotinib 0.008 | doramapimod 0.031 | [4] 0.04

LRCH1 isoform 3 (UniProt Q9Y2L9)
inactive: Tubastatin A -0.338 | [6] 0.016 | alisertib 0.173 | [1] -0.022 | gefitinib -0.071 | lapatinib -0.012 | pictilisib -0.061 | duvelisib 0 | bafetinib -0.128

LIMD2 (UniProt Q9BT23)
inactive: pictilisib 0.057 | crizotinib -0.034 | doramapimod 0.011 | bafetinib -0.316

Taken from the listing (2 entries):
LRCH1 isoform 3 (UniProt Q9Y2L9)
inactive: Tubastatin A -0.338 | [6] 0.016 | alisertib 0.173 | [1] -0.022 | gefitinib -0.071 | lapatinib -0.012 | pictilisib -0.061 | duvelisib 0 | bafetinib -0.128

LIMD2 (UniProt Q9BT23)
inactive: pictilisib 0.057 | crizotinib -0.034 | doramapimod 0.011 | bafetinib -0.316

(list continues)

LSM14B (UniProt Q9BX40)
inactive: Tubastatin A 0.031 | [2] 0.18 | alisertib 0.036 | [1] -0.072 | gefitinib -0.08 | lapatinib 0.022 | pictilisib -0.035 | crizotinib -0.057 | doramapimod 0.108 | bafetinib 0.162

LRRC9 (UniProt Q6ZRR7)
active: [4] 0.694
inactive: alvocidib 0.911 | defactinib -0.056 | encorafenib -0.022 | [5] 0.003 | crizotinib -0.065 | [3] 0.032 | gandotinib -0.488 | tozasertib 0.053 | doramapimod 0.074

LEG1 (UniProt Q6P5S2)
inactive: Tubastatin A 1.27 | [2] 0.156 | [6] 0.116 | encorafenib -0.074 | [5] 0.267 | alisertib 0.166 | [1] 0.04 | gefitinib -0.023 | lapatinib -0.042 | pictilisib -0.22 | crizotinib -0.157 | duvelisib 0.152 | tozasertib -0.027 | doramapimod 0.299 | bafetinib -0.448

LCOR isoform 3 (UniProt Q96JN0)
inactive: [1] 0.079 | lapatinib -0.119

LRRCC1 (UniProt Q9C099)
inactive: Tubastatin A 0.039 | [2] 0.037 | defactinib 0.012 | [6] 0.168 | encorafenib -0.057 | [5] 0.092 | alisertib 0.009 | [1] 0.052 | gefitinib 0.23 | lapatinib -0.055 | crizotinib 0.034 | duvelisib 0.036 | tozasertib -0.071 | doramapimod 0.078

LCA5 (UniProt Q86VQ0)
inactive: defactinib 0.098 | encorafenib -0.05 | [5] 0.126 | alisertib -0.207 | gefitinib 0.229 | crizotinib 0.064 | tozasertib -0.194 | doramapimod 0.042

LLGL2 (UniProt Q6P1M3)
inactive: [2] 0.256 | defactinib -0.076 | [6] -0.086 | encorafenib 0.11 | [5] -0.143 | alisertib -0.045 | [1] -0.114 | gefitinib -0.098 | lapatinib 0.133 | crizotinib -0.092 | duvelisib -0.003 | tozasertib -0.064 | doramapimod 0.245

LONP2 (UniProt Q86WA8)
inactive: alvocidib -0.208 | defactinib 0.018 | [3] -0.099 | gandotinib 0.16 | [4] 0.045

LCN2 (UniProt P80188)
inactive: [2] 0.071 | defactinib -0.661 | alisertib -0.104 | [1] 0.061 | gefitinib -0.039 | lapatinib 0.028

LMO4 (UniProt P61968)
inactive: Tubastatin A 0.018 | [2] -0.166 | defactinib 0.03 | [6] -0.413 | [1] 0.111 | lapatinib 0.038 | crizotinib -0.121 | duvelisib -0.122 | doramapimod -0.006
